Values from PubChem BioAssay AID602196 (INSERM, 2012).

Purpose: 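Genes whose knock-down alters cisplatin killing of lung cancer cells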
Cells: human A549 lung cancer cells
Reagent: siRNA pair against human genes
Time to read-out: 48 h transfection before cisplatin; time from cisplatin to read-out not stated
Treatment: cisplatin at a dose killing half of control-siRNA cells; exact dose and duration not given
Detection: 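Shift in cisplatin death relative to control siRNA, from -50 (all cells die) to +50 (no cells die); siRNAs harmful on their own scored 0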
Direction: two-siRNA summed score (-2 to +2): higher = both siRNAs protect from cisplatin killing; -2 means both sensitise; mean protection from cisplatin (shift in death) and protection from cisplatin (shift in death), siRNA C and protection from cisplatin (shift in death), siRNA D: higher = protection from cisplatin killing
Active means: 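Each siRNA scores 0 if harmful alone by LDH or WST-1, otherwise +1 if it reduces and -1 if it increases cisplatin killing; a gene is active when both siRNAs agree (sum +2 or -2)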
Calls: active = both siRNAs shift cisplatin killing the same way; inactive = no consistent shift, or siRNA harmful alone
This is a random part of about 23,000 reagents tested. In the full data, 455 (2%) were called active. 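Active includes both protection and sensitisation; some change values fall well beyond the stated -50 to +50 range.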 Not given: the amount of reagent.

gene knocked down	two-siRNA summed score (-2 to +2)	mean protection from cisplatin (shift in death) (%)	protection from cisplatin (shift in death), siRNA C (%)	protection from cisplatin (shift in death), siRNA D (%)	outcome
DARS2 (aspartyl-tRNA synthetase 2, mitochondrial)	0	3.7	4.6	2.8	inactive
LOC440057	0	-0.2	1.1	-1.6	inactive
TRIM39 (tripartite motif containing 39)	0	-6.8	-6.2	-7.4	inactive
ACAP3 (ArfGAP with coiled-coil, ankyrin repeat and PH domains 3)	0	3.9	3.6	4.2	inactive
WDR54 (WD repeat domain 54)	1	20.1	27.2	13.1	inactive
LRAT (lecithin retinol acyltransferase)	0	-0.8	4	-5.7	inactive
PELI1 (pellino E3 ubiquitin protein ligase 1)	0	9.9	9	10.7	inactive
LOC390638 (golgin A2 pseudogene)	0	7.9	19.6	-3.8	inactive
LOC441113	0	4.6	11.2	-2	inactive
LOC441921	0	29.1	6.5	51.7	inactive
NAMPT (nicotinamide phosphoribosyltransferase)	2	15.2	15.2	15.2	active
FBL (fibrillarin rRNA 2'-O-methyltransferase)	0	3.2	-10.1	16.5	inactive
SPRY1 (sprouty RTK signaling antagonist 1)	0	0.5	2.9	-2	inactive
GPR101 (G protein-coupled receptor 101)	0	3.7	-14.5	21.8	inactive
ISG20L2 (interferon stimulated exonuclease gene 20 like 2)	0	-0.9	0.3	-2	inactive
CREG2 (cellular repressor of E1A stimulated genes 2)	1	13.2	8.3	18.2	inactive
OTOG (otogelin)	0	7.4	-5.8	20.6	inactive
LOC286404	-1	-1.1	10	-12.2	inactive
ZNF501 (zinc finger protein 501)	1	10.4	13.2	7.7	inactive
BACE2 (beta-secretase 2)	-1	-7.7	-16.1	0.7	inactive
GARIN2 (golgi associated RAB2 interactor family member 2)	1	9.3	-1.5	20.2	inactive
CEP83 (centrosomal protein 83)	0	5	6.7	3.3	inactive
RAB42 (RAB42, member RAS oncogene family)	0	5.6	4.8	6.5	inactive
SLC22A4	0	13.4	30.2	-3.5	inactive
TFE3 (transcription factor binding to IGHM enhancer 3)	0	11.4	-5.7	28.6	inactive
LOC441095	0	1.4	1.2	1.6	inactive
PREX2	-1	-7.3	-16	1.4	inactive
SRPK3 (SRSF protein kinase 3)	1	5.2	10.1	0.2	inactive
TMCC3 (transmembrane and coiled-coil domain family 3)	0	0.7	-6.3	7.6	inactive
F2R (coagulation factor II thrombin receptor)	1	10	7.5	12.4	inactive
KBTBD4 (kelch repeat and BTB domain containing 4)	-1	-12.7	-20.9	-4.5	inactive
LOC442527	0	8.8	6.5	11.1	inactive
TMEM255B (transmembrane protein 255B)	1	1.1	17.5	-15.3	inactive
BCRP2 (BCR pseudogene 2)	-1	-0.4	-14.2	13.5	inactive
ADORA2B (adenosine A2b receptor)	2	21.6	28.7	14.5	active
GNPAT (glyceronephosphate O-acyltransferase)	0	-2.5	-0.3	-4.7	inactive
LOC391599	0	0.9	19.7	-17.8	inactive
PYCR3 (pyrroline-5-carboxylate reductase 3)	-1	-4.3	-23.7	15.1	inactive
CD81 (CD81 molecule)	-1	-6.3	-21.4	8.8	inactive
AFDN (afadin, adherens junction formation factor)	1	16.2	23.2	9.2	inactive
REELD1 (reeler domain containing 1)	0	-14.7	-9.4	-19.9	inactive
CPLX2 (complexin 2)	0	-3.2	-7.5	1	inactive
CNBD1 (cyclic nucleotide binding domain containing 1)	0	7	-3.7	17.8	inactive
MAB21L1 (mab-21 like 1)	0	14.1	10.1	18.1	inactive
OSBPL9 (oxysterol binding protein like 9)	1	7	11.4	2.7	inactive
JOSD1 (Josephin domain containing 1)	0	-13.5	-15.4	-11.6	inactive
N4BP1 (NEDD4 binding protein 1)	0	-2	0.3	-4.4	inactive
BNC1 (basonuclin zinc finger protein 1)	1	14	15.5	12.4	inactive
TAF11 (TATA-box binding protein associated factor 11)	0	-5.1	-5.2	-5	inactive
SNCG (synuclein gamma)	0	6.8	4.6	9	inactive
LOC401220 (retired record)	0	7.8	12	3.7	inactive
LOC391849	0	6.7	-8.4	21.9	inactive
CRYBB1 (crystallin beta B1)	0	-6.3	-15.8	3.1	inactive
SPI1 (Spi-1 proto-oncogene)	-2	-24.4	-29.3	-19.5	active
CEP19 (centrosomal protein 19)	0	-0.2	-4.8	4.3	inactive
LOC440591	0	16.6	11.4	21.8	inactive
SGCZ (sarcoglycan zeta)	1	11.7	13.3	10.2	inactive

In a second layout: entries from further up
BACE2 (beta-secretase 2)
- two-siRNA summed score (-2 to +2): -1
- mean protection from cisplatin (shift in death) (%): -7.7
- protection from cisplatin (shift in death), siRNA C (%): -16.1
- protection from cisplatin (shift in death), siRNA D (%): 0.7
- outcome: inactive

GARIN2 (golgi associated RAB2 interactor family member 2)
- two-siRNA summed score (-2 to +2): 1
- mean protection from cisplatin (shift in death) (%): 9.3
- protection from cisplatin (shift in death), siRNA C (%): -1.5
- protection from cisplatin (shift in death), siRNA D (%): 20.2
- outcome: inactive

CEP83 (centrosomal protein 83)
- two-siRNA summed score (-2 to +2): 0
- mean protection from cisplatin (shift in death) (%): 5
- protection from cisplatin (shift in death), siRNA C (%): 6.7
- protection from cisplatin (shift in death), siRNA D (%): 3.3
- outcome: inactive

RAB42 (RAB42, member RAS oncogene family)
- two-siRNA summed score (-2 to +2): 0
- mean protection from cisplatin (shift in death) (%): 5.6
- protection from cisplatin (shift in death), siRNA C (%): 4.8
- protection from cisplatin (shift in death), siRNA D (%): 6.5
- outcome: inactive

SLC22A4
- two-siRNA summed score (-2 to +2): 0
- mean protection from cisplatin (shift in death) (%): 13.4
- protection from cisplatin (shift in death), siRNA C (%): 30.2
- protection from cisplatin (shift in death), siRNA D (%): -3.5
- outcome: inactive

TFE3 (transcription factor binding to IGHM enhancer 3)
- two-siRNA summed score (-2 to +2): 0
- mean protection from cisplatin (shift in death) (%): 11.4
- protection from cisplatin (shift in death), siRNA C (%): -5.7
- protection from cisplatin (shift in death), siRNA D (%): 28.6
- outcome: inactive

LOC441095
- two-siRNA summed score (-2 to +2): 0
- mean protection from cisplatin (shift in death) (%): 1.4
- protection from cisplatin (shift in death), siRNA C (%): 1.2
- protection from cisplatin (shift in death), siRNA D (%): 1.6
- outcome: inactive

PREX2
- two-siRNA summed score (-2 to +2): -1
- mean protection from cisplatin (shift in death) (%): -7.3
- protection from cisplatin (shift in death), siRNA C (%): -16
- protection from cisplatin (shift in death), siRNA D (%): 1.4
- outcome: inactive
